No constants are given. Whether binding was seen depends on the method and setting. In cells and extracts the contact can be indirect. Some binding calls cover weakened binding; strength is not graded here. Where a sequence is shown, tags or fusion partners need not be part of it.
Target: Flag-TRF2 (Telomeric repeat-binding factor 2), wild type (not stated (human or mouse cDNA cloned)) (UniProt Q15554)
Experiment: co-IP; 293T or U2OS cells co-transfected with epitope-tagged cDNAs, lysed 48 h later in BCO 300 buffer (20 mM HEPES pH 7.5, 10% glycerol, 1 mM EDTA, 0.1% NP-40); Flag M2 affinity gel; SDS-PAGE and blot

By UniProt entry, the sequences of proteins in these tests, tags left out.
UniProt Q15554: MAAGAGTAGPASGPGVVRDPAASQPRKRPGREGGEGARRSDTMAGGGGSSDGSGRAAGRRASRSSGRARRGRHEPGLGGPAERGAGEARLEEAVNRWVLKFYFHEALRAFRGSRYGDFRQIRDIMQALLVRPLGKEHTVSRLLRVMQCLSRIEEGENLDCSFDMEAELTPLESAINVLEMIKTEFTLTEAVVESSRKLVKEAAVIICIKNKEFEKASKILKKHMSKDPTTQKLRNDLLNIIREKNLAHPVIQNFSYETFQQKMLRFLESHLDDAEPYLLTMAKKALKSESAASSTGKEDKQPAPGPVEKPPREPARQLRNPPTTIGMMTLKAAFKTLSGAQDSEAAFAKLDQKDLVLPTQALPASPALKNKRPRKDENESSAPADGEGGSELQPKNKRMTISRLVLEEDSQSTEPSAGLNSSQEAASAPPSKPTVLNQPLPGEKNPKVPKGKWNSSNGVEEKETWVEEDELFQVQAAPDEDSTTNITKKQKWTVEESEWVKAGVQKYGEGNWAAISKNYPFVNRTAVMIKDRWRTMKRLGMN

- binding: binds
B1: HA-DDX21, wild type (protein, UniProt Q9NR30 1-783)
chain: MPGKLRSDAGLESDTAMKKGETLRKQTEEKEKKEKPKSDKTEEIAEEEETVFPKAKQVKKKAEPSEVDMNSPKSKKAKKKEEPSQNDISPKTKSLRKKKEPIEKKVVSSKTKKVTKNEEPSEEEIDAPKPKKMKKEKEMNGETREKSPKLKNGFPHPEPDCNPSEAASEESNSEIEQEIPVEQKEGAFSNFPISEETIKLLKGRGVTFLFPIQAKTFHHVYSGKDLIAQARTGTGKTFSFAIPLIEKLHGELQDRKRGRAPQVLVLAPTRELANQVSKDFSDITKKLSVACFYGGTPYGGQFERMRNGIDILVGTPGRIKDHIQNGKLDLTKLKHVVLDEVDQMLDMGFADQVEEILSVAYKKDSEDNPQTLLFSATCPHWVFNVAKKYMKSTYEQVDLIGKKTQKTAITVEHLAIKCHWTQRAAVIGDVIRVYSGHQGRTIIFCETKKEAQELSQNSAIKQDAQSLHGDIPQKQREITLKGFRNGSFGVLVATNVAARGLDIPEVDLVIQSSPPKDVESYIHRSGRTGRAGRTGVCICFYQHKEEYQLVQVEQKAGIKFKRIGVPSATEIIKASSKDAIRLLDSVPPTAISHFKQSAEKLIEEKGAVEALAAALAHISGATSVDQRSLINSNVGFVTMILQCSIEMPNISYAWKELKEQLGEEIDSKVKGMVFLKGKLGVCFDVPTASVTEIQEKWHDSRRWQLSVATEQPELEGPREGYGGFRGQREGSRGFRGQRDGNRRFRGQREGSRGPRGQRSGGGNKSNRSQNKGQKRSFSKAFGQ
